# The shares of active, inactive and inconclusive entries below differ from those in the screen. Activity calls are given as the source filed them. No rule for the calls is given here.
# Experiment: EDDHA-treated Pseudomonas aeruginosa growth inhibition – OD600, ATCC 15692, cherry-pick, set 2, dose response (AID 624058)
# Settings: P. aeruginosa ATCC 15692 with EDDHA, OD600, 24-30 h; at 50 µM (top of the series) unless noted
row,Structure (SMILES),growth inhibition
1,COc1ccc(N=C(C)C2=C(O)CSC2=O)cc1,inconclusive: 0.765%
2,CCOC(=O)CC(C#N)c1cn(C)c2ccccc12 (centres undefined),inconclusive: -2.84%
3,N#Cc1cc(-c2ccccc2)cnc1Cl,inactive: 30.5%
4,CCCCCC1CC(COc2ccccc2)OC1=O (centres undefined),inconclusive: -3.32%
5,Clc1ccc2scc(CN3CCCC3)c2c1,inconclusive: 33.4%
6,O=C(/C=C/c1cccs1)c1cc(Cl)ccc1O,inconclusive: 58.9%
7,Cc1cc(NC(=O)Nc2ccccc2[N+](=O)[O-])no1,inconclusive: 19.5%
8,CCOC(=O)c1ccc(-c2ccc(C=O)o2)cc1,inconclusive: 10.7%
9,CCOC(=O)CCCn1ncn2c(cc3occc32)c1=O,inconclusive: 6.58%
10,COc1ccc(N2CCN(C(=O)c3ccc(Br)o3)CC2)cc1,inconclusive: -6.88%
11,COc1ccc(C(C#N)c2ccc(Cl)nn2)cc1 (centres undefined),inconclusive: 2.57%
12,N#CCn1c(C2CCCCC2)nc2ccccc2c1=O,inconclusive: 18.5%
13,COC(=O)c1ccc(OC(=O)c2ccco2)cc1,inconclusive: -6.16%
14,Cn1cccc1C(=O)OCc1cc(-c2ccco2)on1,inconclusive: 14.9%
15,O=[N+]([O-])c1ccc(N2CCCCC2)nc1,inactive: 4.26%
16,Cc1ccc(S(=O)c2ccc(C)cc2)cc1,inactive: 22.7%
17,CCOC(=O)c1ccc(-c2ccc(CO)o2)cc1,inactive: 14%

# Structures shown so far with a thiophene ring, fused or not:
row,Structure (SMILES),growth inhibition
5,Clc1ccc2scc(CN3CCCC3)c2c1,inconclusive: 33.4%
6,O=C(/C=C/c1cccs1)c1cc(Cl)ccc1O,inconclusive: 58.9%

# Continuation:

row,Structure (SMILES),growth inhibition
1,O=C1C2C3C=CC(C4CC34)C2C(=O)N1Cc1ccco1 (centres undefined),inconclusive: 28.2%
2,CCOC(=O)/C=C(\C)Sc1cc(=O)oc2ccccc12,inactive: 19.5%
3,O=CNC1(c2ccccc2)CCCCC1,inconclusive: 12.5%
4,N#CC(Sc1ccccn1)c1ccc(Cl)cc1 (centres undefined),inconclusive: 34.2%
5,O=C(NC1CCCC1)c1cc(Cl)ccc1[N+](=O)[O-],inconclusive: 18.7%
6,O=[N+]([O-])c1ccc(N2CCCCC2)cc1,inconclusive: 39.5%
7,Cc1cc(NC(=O)c2cc([N+](=O)[O-])cc([N+](=O)[O-])c2C)no1,inconclusive: 24.5%
8,CSc1nnc(-c2ccc([N+](=O)[O-])cc2)o1,inconclusive: 22.4%
9,Cc1cc(S(=O)(=O)NCC2CC2)c(Cl)cc1Cl,inconclusive: 20.3%
10,CC(C)(C)NC(=O)c1cc(Cl)ccc1[N+](=O)[O-],inconclusive: 34.6%
11,Clc1cccc(CNCCCSc2ncccn2)c1,inconclusive: -4.64%
12,CN(Cc1ccccc1)c1ncnc2ccc(Br)cc12,inconclusive: 7.55%
13,O=C(Nc1ncc([N+](=O)[O-])s1)c1cccc([N+](=O)[O-])c1,inconclusive: 13.7%
14,N#CC(c1ccc(Cl)nn1)c1ccccc1Cl (centres undefined),inconclusive: -0.794%
15,Cc1cc(NC(=O)c2c(F)c(F)c(F)c(F)c2F)no1,inconclusive: 53.1%
16,CC(C)CCNC(=O)c1cccc(Cl)c1,inconclusive: 13%
17,N#CC(c1ccc(Cl)nn1)c1ccc(Cl)cc1Cl (centres undefined),inconclusive: 9.57%

# From PubChem BioAssay AID624058 (Broad Institute, 2012)
